PubChem BioAssay AID1259259, Sanger Institute – 2017

Purpose: 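Kinase silencing that lowers colorectal cancer cell viability alone or with drugs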 (primary screen)
Cells: SW1463 human colorectal cancer cells
Knock-down reagent: siRNA pool against human genes
Conditions: DMSO vehicle, or one anchor drug: BYL719 at 1 µM, cetuximab at 5 µg/ml, or trametinib at 10 nM
Detection: 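Viability as fraction of control pool 2 (non-targeting), replicate mean; knock-down robust z-score without any drug; synergy score averaged for each anchor drug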
Scale: robust z-score, knock-down alone: higher = more viable cells after knock-down; viability, knock-down alone: higher = more viable cells
Units: viability, knock-down alone in fraction of control
Active means: 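Knock-down called essential when its robust z-score without drug falls below -3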
Calls: active = essential: viability loss from knock-down alone; inactive = no change from knock-down alone
In all, the deposit lists 794 reagents; this is an unselected part. 9 of them (1.1%) count as active. 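Calls rest on knock-down alone, not drug synergy; viability values seem capped at 1.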 Further read-outs or replicates are left out here. Not stated in the record: the amount of reagent, the time to read-out.

GRK2
- robust z-score, knock-down alone: 0.918
- viability, knock-down alone: 0.987
- call: inactive

TRIB3
- robust z-score, knock-down alone: -0.132
- viability, knock-down alone: 0.919
- call: inactive

MTOR
- robust z-score, knock-down alone: -0.125
- viability, knock-down alone: 0.92
- call: inactive

PFKP
- robust z-score, knock-down alone: 1.13
- viability, knock-down alone: 1
- call: inactive

PRKAG3
- robust z-score, knock-down alone: -2.33
- viability, knock-down alone: 0.778
- call: inactive

MAP2K6
- robust z-score, knock-down alone: 1.13
- viability, knock-down alone: 1
- call: inactive

TLK2
- robust z-score, knock-down alone: 1.13
- viability, knock-down alone: 1
- call: inactive

CDKL5
- robust z-score, knock-down alone: -0.329
- viability, knock-down alone: 0.906
- call: inactive

TYK2
- robust z-score, knock-down alone: -1.06
- viability, knock-down alone: 0.86
- call: inactive

EPHB1
- robust z-score, knock-down alone: -0.0503
- viability, knock-down alone: 0.924
- call: inactive

BMPR1A
- robust z-score, knock-down alone: 1.07
- viability, knock-down alone: 0.997
- call: inactive

EPHA8
- robust z-score, knock-down alone: 0.828
- viability, knock-down alone: 0.981
- call: inactive

PAPSS2
- robust z-score, knock-down alone: -1.69
- viability, knock-down alone: 0.819
- call: inactive

TTBK2
- robust z-score, knock-down alone: -0.533
- viability, knock-down alone: 0.893
- call: inactive

WNK4
- robust z-score, knock-down alone: -0.723
- viability, knock-down alone: 0.881
- call: inactive

Reformatted: results already given.
target,"robust z-score, knock-down alone","viability, knock-down alone",call
PFKP,1.13,1,inactive
PRKAG3,-2.33,0.778,inactive
MAP2K6,1.13,1,inactive
TLK2,1.13,1,inactive
CDKL5,-0.329,0.906,inactive

The listing continues:
RBM10
- robust z-score, knock-down alone: -0.128
- viability, knock-down alone: 0.919
- call: inactive

CUL1
- robust z-score, knock-down alone: -0.266
- viability, knock-down alone: 0.911
- call: inactive

PDGFRL
- robust z-score, knock-down alone: 0.333
- viability, knock-down alone: 0.949
- call: inactive

BLK
- robust z-score, knock-down alone: 0.942
- viability, knock-down alone: 0.988
- call: inactive

CSF1R
- robust z-score, knock-down alone: 0.902
- viability, knock-down alone: 0.986
- call: inactive

IRAK2
- robust z-score, knock-down alone: 1.13
- viability, knock-down alone: 1
- call: inactive

KALRN
- robust z-score, knock-down alone: 0.333
- viability, knock-down alone: 0.949
- call: inactive

CDK7
- robust z-score, knock-down alone: 1.13
- viability, knock-down alone: 1
- call: inactive

YES1
- robust z-score, knock-down alone: 0.36
- viability, knock-down alone: 0.951
- call: inactive

CTNNB1
- robust z-score, knock-down alone: -2.71
- viability, knock-down alone: 0.754
- call: inactive

MAP4K3
- robust z-score, knock-down alone: -0.408
- viability, knock-down alone: 0.901
- call: inactive

GK
- robust z-score, knock-down alone: 0.837
- viability, knock-down alone: 0.981
- call: inactive

HK3
- robust z-score, knock-down alone: -0.286
- viability, knock-down alone: 0.909
- call: inactive

ADGRL2
- robust z-score, knock-down alone: 0.827
- viability, knock-down alone: 0.981
- call: inactive

TRPM6
- robust z-score, knock-down alone: 1.13
- viability, knock-down alone: 1
- call: inactive

APC
- robust z-score, knock-down alone: -1.71
- viability, knock-down alone: 0.818
- call: inactive

TESK2
- robust z-score, knock-down alone: -0.595
- viability, knock-down alone: 0.889
- call: inactive

TNIK
- robust z-score, knock-down alone: 0.213
- viability, knock-down alone: 0.941
- call: inactive

LCK
- robust z-score, knock-down alone: 0.241
- viability, knock-down alone: 0.943
- call: inactive

CHD9
- robust z-score, knock-down alone: 0.0631
- viability, knock-down alone: 0.932
- call: inactive

RPS6KL1
- robust z-score, knock-down alone: 0.661
- viability, knock-down alone: 0.97
- call: inactive
